The values below come from PubChem BioAssay AID493014 (National Center for Advancing Translational Sciences (NCATS), 2011).

The other results are listed elsewhere or left out. Further columns of the screen follow, without active or inactive calls. Compounds called inactive in the main read-out are mostly missing here. Words in brackets tell the shape of the fitted curve; partial curves, single points and poor fits give uncertain potencies.

The nature of the test: qHTS Assay to Find Inhibitors of Chronic Active B-Cell Receptor Signaling. To be noted: ABC-DLBCL IkBa-CBG/CBR reporter, luminescence ratio (green luciferase fused to IkBa over red control in TMD8 lymphoma cells), 4 h. In outline: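 TMD8 ABC-DLBCL cells carrying doxycycline-inducible green luciferase fused to IkappaBalpha plus unfused red luciferase were exposed to compounds (up to 46 uM) for 4 hrs at 37C. Activity came from the overlap-corrected green/red luminescence ratio.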
Background: Quantitative high-throughput screening tests each substance at several concentrations.

Setting [1] is: measured here: CBR red luminescence, cell number.
Where [2] appears, read: measured here: IkBa-CBG green luminescence.

Usually AC50 stands for the concentration at which the activity in the assay is half-maximal. Take `N#Cc1ccccc1S(=O)(=O)N1CCN(C(=O)C2COc3ccccc3O2)CC1` (stereo not given): the AC50 under setting [1] was 2.06 µM [rising, full curve, poor fit].

Take `CC(=O)NC1CC2CCCC(C1)N2CC(=O)N1CCCc2ccccc21` (stereo not given): the AC50 under setting [1] is 29.1 µM [rising, single point].

For the compound `CN(C(=O)c1ccncc1)c1nnc(-c2ccncc2)s1`, under setting [1], the AC50 is 25.9 µM [rising, single point].

Regarding `COc1cc(/C=C2\SC(=S)N(Nc3ccccc3)C2=O)cc(OC)c1OC`, the AC50 under setting [1] is 20 µM [falling, single point].

Turning to `NC(=S)N/N=C\c1ccc(-c2cccc(Cl)c2Cl)o1`, the AC50 was 5.17 µM [rising, full curve, poor fit] under setting [1] and 3.66 µM [falling, full curve] under setting [2].

Take `CC(O)CNCCCOc1ccc(Cl)cc1C(C)(C)C` (stereo not given): the half-maximal activity concentration (AC50) under setting [1] was 35.5 µM [falling, single point].

As for `COc1cccc2c(=O)n(CC(=O)N3CCCCCC3)ccc12`, under setting [1], the AC50 is 29.1 µM [falling, single point].

With `CCc1ccccc1OCC(=O)Nc1ccc(S(N)(=O)=O)cc1`, the AC50 under setting [1] was 1.16 µM [falling, full curve, poor fit].

For the compound `CC(=O)O/N=C/c1c(N2CCOCC2)n(C)c2ccccc12`, the AC50 under setting [1] was 11.2 µM [falling, partial curve].

In the case of `O=C(COc1ccccc1[N+](=O)[O-])Nc1ccc2c(c1)CCC2`, the AC50 under setting [1] is 3.26 µM [rising, partial curve, poor fit].

Take `O=C(c1ccccc1-c1nc(-c2ccccc2)no1)N1CCOCC1`: under setting [1], the AC50 is 15.8 µM [rising, single point].

On to `O=C(OCCc1cc2ccccc2c(=O)o1)c1ccc2c(c1)OCO2`, for which, under setting [1], the AC50 was 29.1 µM [falling, single point].

On to `CC/C(C)=N/NC(=O)c1[nH]c2ccc(C)cc2c1-c1ccccc1`, for which the AC50 under setting [2] was 3.55 µM [falling, full curve].

`CCC(CC)c1nc2ccccc2c(=O)[nH]1`: under setting [1], the AC50 is 14.1 µM [falling, partial curve].

For `O=C(CSc1nnc(-c2csc3c2CCCC3)o1)Nc1ccccc1`, the AC50 under setting [1] is 11.6 µM [falling, partial curve, poor fit].

With `COc1ccccc1C(=O)n1nc(-c2ccc(Cl)cc2)nc1N`, under setting [1], the AC50 is 0.58 µM [falling, full curve].

With `O=C1NC(=O)/C(=C\c2ccc(OCc3ccccc3)cc2)S1`, under setting [1], the AC50 was 2.82 µM [rising, partial curve, poor fit].

Consider `O=S(Cc1ccc(Br)cc1)Cc1nnc(SCc2ccc(Cl)cc2)n1-c1ccccc1` (stereo not given), for which the AC50 under setting [1] was 25.1 µM [falling, single point].

As for `CCOc1cc(-c2cc(-c3ccc(C)o3)nc(N)c2C#N)ccc1O`, the AC50 under setting [1] was 0.82 µM [falling, full curve].

Regarding `COC(=O)c1ccc(C(=O)Nc2ccc(F)cc2)cc1`, the AC50 under setting [1] is 0.058 µM [falling, full curve].

In the case of `CC(=O)c1c(C)[nH]c(C(=O)OCC(=O)c2c[nH]c3ccccc23)c1C`, the AC50 is 29.1 µM [falling, single point] under setting [1] and 18.4 µM [falling, partial curve, poor fit] under setting [2].

Take `CN(C)CCCN(CCCN(C)C)C(=S)Nc1ccc(S(=O)(=O)N2CCOCC2)cc1`: under setting [1], the AC50 was 7.08 µM [falling, partial curve, poor fit].

With `O=C(O)CCC(=O)Nc1ccc(N2CCCCCC2)cc1`, under setting [1], the AC50 is 0.058 µM [falling, full curve].

Take `Cn1c(SCC(=O)Nc2nccs2)nnc1-c1ccco1`: under setting [1], the AC50 is 29.1 µM [falling, single point].

As to `c1ccc(Nc2nc(N3CCOCC3)c3ccccc3n2)cc1`, the AC50 under setting [1] was 32.6 µM [falling, single point].

For `NC(=O)c1ccsc1NC(=O)COC(=O)c1cc(=O)[nH]c2ccccc12`, under setting [1], the AC50 was 2.91 µM [falling, full curve, poor fit].

With `COc1ccc(CCNC(=S)Nc2cccc3ccccc23)cc1`, the AC50 by setting is: under setting [1], 6.51 µM [rising, partial curve, poor fit]; under setting [2], 29.1 µM [falling, single point].

As to `O=C(CC1CCCCC1)N1CCN(c2ccccn2)CC1`, the AC50 under setting [1] was 32.6 µM [falling, partial curve, poor fit].

Regarding `O=C(CCC(=O)c1ccc(Cl)s1)Nc1ncccc1O`, the AC50 under setting [1] was 18.4 µM [falling, partial curve].

Turning to `O=C(COC(=O)C1(c2ccccc2F)CCCC1)NCc1ccc2c(c1)OCO2`, under setting [1], the AC50 is 5.17 µM [rising, single point].

For `C/C(=N/O)c1cccc(N2Cc3ccccc3C2)c1`, the AC50 under setting [1] was 22.4 µM [falling, single point].

On to `FC(F)(F)c1cccc(-c2ccc(-c3csnn3)o2)c1`, for which, under setting [1], the AC50 is 2.82 µM [rising, full curve, poor fit].

For the compound `C1CCCC(NC2=NCCO2)CCC1`, the AC50 under setting [1] is 0.891 µM [falling, full curve, poor fit].

With `CC1=NN(c2ccccc2)C(=O)C1C(=O)c1ccc([N+](=O)[O-])cc1` (stereo not given), under setting [1], the AC50 is 35.5 µM [falling, partial curve, poor fit].

Take `CSc1ccc(CNCCN2CCOCC2)cc1`: the AC50 under setting [1] is 0.708 µM [rising, full curve, poor fit].

With `Cc1ccc(S(=O)(=O)N(C)CC(=O)OCC(=O)c2ccc3c(c2)NC(=O)CO3)cc1`, under setting [1], the AC50 is 29.1 µM [rising, single point].

As to `S=C(NCCc1ccccc1)Nc1ccc(Nc2ccccc2)cc1`, under setting [1], the AC50 was 0.158 µM [falling, full curve].

Consider `COc1ccc(-c2noc(CCC(=O)NC3CCN(Cc4ccccc4)CC3)n2)cc1`, for which the AC50 under setting [1] was 7.31 µM [rising, partial curve, poor fit].

As for `c1ccc(-c2cc(-c3nnc4sc(-c5ccccn5)nn34)[nH]n2)cc1`, under setting [1], the AC50 is 3.98 µM [falling, full curve].

As to `O=C(COc1ccccc1Br)c1ccc(O)cc1O`, the AC50 under setting [1] was 3.55 µM [falling, full curve, poor fit].

`CCCC(=O)N1CCc2cc(OC)c(OC)cc2C1COc1ccccc1OC` (stereo not given): under setting [1], the AC50 is 2.82 µM [rising, partial curve, poor fit].

Regarding `C=CCn1c(NC(=O)c2ccco2)c(S(=O)(=O)c2ccccc2)c2nc3ccccc3nc21`, the AC50 under setting [1] was 17.8 µM [falling, partial curve, poor fit].
